Data as given in the supplement of paper PMC10849652.
Some of the results follow.

Sequences of proteins named here, by UniProt entry; tags and fusion partners are left off. A change or cut given only in a name is not applied to a line headed by its entry.
UniProt Q96SW2: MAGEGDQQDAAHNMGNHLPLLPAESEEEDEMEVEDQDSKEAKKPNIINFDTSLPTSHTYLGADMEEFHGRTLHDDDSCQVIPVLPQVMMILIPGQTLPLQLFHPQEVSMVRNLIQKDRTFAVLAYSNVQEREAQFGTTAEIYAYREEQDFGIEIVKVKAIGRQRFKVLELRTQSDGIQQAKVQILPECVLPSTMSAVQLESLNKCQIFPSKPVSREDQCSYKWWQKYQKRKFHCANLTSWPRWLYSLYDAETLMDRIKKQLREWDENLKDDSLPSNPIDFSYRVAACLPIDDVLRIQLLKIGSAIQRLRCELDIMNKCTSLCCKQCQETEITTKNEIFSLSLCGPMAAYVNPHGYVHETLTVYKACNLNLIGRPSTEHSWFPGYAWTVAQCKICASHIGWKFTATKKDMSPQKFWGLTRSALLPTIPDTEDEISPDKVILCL
UniProt Q08257: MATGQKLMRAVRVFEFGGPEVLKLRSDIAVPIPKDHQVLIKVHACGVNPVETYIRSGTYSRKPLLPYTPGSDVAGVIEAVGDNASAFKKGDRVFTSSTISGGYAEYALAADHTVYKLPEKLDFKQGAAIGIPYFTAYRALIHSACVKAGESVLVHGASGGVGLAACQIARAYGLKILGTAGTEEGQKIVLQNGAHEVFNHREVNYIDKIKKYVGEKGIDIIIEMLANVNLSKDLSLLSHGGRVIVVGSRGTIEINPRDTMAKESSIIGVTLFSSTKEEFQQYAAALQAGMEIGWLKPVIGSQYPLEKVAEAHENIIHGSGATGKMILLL
UniProt Q8WYA6: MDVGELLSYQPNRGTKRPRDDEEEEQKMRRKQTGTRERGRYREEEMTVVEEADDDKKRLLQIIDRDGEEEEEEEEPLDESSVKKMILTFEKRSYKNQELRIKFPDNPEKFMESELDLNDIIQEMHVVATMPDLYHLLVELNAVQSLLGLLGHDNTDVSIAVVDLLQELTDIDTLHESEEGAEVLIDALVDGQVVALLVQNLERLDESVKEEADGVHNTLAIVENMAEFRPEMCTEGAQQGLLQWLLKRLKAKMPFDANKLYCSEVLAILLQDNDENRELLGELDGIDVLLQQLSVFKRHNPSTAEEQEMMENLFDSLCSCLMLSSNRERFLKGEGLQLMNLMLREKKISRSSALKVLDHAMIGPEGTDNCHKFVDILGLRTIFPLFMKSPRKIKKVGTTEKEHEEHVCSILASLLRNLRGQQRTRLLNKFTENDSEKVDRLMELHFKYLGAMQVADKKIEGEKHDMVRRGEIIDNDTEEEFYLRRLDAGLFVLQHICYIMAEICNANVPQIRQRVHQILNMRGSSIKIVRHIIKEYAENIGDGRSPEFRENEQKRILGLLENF
UniProt P53634: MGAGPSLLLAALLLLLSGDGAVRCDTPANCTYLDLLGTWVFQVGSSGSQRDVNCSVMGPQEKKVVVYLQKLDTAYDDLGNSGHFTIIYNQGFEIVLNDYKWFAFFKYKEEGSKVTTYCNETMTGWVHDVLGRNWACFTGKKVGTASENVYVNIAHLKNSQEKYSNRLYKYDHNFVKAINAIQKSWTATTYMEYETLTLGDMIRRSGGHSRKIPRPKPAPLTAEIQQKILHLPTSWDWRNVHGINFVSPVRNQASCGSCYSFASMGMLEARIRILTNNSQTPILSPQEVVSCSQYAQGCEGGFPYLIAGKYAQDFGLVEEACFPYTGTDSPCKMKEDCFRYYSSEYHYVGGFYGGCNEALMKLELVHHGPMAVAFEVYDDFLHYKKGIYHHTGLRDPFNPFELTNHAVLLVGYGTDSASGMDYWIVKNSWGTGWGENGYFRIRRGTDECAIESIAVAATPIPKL
UniProt Q9UBR2: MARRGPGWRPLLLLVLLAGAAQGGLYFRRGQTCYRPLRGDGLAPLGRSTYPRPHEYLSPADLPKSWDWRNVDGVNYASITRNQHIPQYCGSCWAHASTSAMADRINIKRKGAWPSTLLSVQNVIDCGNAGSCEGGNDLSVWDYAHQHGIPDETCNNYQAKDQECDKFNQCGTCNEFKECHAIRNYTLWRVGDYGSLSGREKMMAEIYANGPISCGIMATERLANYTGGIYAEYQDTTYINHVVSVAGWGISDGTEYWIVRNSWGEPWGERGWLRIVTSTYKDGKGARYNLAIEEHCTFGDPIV
UniProt P48729: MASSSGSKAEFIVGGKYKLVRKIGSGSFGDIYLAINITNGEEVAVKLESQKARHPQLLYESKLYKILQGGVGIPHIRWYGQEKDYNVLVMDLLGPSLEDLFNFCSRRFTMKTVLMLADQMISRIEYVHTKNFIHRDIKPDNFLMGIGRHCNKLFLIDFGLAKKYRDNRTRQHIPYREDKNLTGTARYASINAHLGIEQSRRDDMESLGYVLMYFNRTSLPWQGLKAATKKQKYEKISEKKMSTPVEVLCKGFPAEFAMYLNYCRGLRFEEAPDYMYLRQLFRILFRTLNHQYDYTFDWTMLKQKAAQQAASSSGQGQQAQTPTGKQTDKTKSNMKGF
UniProt O95825: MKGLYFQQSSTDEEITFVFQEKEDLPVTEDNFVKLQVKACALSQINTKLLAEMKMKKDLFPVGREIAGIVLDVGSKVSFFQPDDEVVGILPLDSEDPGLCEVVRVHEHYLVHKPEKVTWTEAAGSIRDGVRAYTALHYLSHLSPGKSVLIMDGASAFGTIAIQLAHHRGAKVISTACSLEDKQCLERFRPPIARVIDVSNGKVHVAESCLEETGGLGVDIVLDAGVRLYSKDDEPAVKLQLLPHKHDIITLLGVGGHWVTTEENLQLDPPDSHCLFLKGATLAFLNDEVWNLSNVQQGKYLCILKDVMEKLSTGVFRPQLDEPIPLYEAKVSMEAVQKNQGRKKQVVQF
UniProt Q49AN0: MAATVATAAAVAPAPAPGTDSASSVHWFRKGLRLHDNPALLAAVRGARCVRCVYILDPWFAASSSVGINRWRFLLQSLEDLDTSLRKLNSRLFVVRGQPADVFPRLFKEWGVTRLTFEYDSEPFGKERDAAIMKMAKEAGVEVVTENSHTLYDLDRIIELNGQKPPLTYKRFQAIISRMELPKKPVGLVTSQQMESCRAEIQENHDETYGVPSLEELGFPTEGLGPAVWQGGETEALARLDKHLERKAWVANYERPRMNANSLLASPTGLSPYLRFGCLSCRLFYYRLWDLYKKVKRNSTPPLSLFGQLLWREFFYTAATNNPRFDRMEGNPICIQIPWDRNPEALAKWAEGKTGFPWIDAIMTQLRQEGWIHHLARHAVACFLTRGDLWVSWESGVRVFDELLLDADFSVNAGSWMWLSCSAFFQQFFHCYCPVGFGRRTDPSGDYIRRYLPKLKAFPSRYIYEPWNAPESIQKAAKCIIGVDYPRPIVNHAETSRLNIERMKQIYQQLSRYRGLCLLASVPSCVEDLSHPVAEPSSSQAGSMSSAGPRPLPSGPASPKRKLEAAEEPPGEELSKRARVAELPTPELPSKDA
UniProt Q16527: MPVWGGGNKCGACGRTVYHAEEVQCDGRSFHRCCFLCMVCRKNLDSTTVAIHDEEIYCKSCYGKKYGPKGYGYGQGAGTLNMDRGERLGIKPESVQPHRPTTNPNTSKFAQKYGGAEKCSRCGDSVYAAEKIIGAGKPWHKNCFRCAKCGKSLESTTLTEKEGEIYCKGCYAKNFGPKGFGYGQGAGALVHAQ
UniProt P54108: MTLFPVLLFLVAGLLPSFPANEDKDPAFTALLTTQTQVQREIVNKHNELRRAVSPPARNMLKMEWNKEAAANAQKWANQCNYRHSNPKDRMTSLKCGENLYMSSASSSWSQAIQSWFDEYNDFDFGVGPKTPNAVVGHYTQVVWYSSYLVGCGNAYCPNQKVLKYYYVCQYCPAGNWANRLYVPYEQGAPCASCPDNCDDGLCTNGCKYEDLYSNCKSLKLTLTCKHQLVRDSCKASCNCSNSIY
UniProt O43310: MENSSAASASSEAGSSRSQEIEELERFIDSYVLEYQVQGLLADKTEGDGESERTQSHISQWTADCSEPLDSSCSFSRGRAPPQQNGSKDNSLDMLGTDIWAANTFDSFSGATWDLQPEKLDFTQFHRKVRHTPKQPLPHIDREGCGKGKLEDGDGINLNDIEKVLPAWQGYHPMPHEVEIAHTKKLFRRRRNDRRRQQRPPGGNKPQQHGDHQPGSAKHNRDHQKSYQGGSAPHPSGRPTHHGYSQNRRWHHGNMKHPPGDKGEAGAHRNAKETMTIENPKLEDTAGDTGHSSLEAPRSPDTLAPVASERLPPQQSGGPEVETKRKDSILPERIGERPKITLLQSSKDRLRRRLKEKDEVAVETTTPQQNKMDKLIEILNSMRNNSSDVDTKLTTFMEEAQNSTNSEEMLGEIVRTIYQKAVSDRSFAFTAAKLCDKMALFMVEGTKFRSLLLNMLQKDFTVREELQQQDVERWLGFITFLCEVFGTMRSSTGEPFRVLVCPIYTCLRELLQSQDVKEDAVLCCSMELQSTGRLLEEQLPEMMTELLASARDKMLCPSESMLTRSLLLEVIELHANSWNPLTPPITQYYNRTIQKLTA
UniProt Q9BQA9: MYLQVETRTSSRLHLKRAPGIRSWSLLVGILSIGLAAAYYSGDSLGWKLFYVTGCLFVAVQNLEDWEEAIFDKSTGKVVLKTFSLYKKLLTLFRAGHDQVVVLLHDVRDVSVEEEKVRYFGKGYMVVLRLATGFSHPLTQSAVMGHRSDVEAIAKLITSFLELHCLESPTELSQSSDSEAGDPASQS
UniProt Q9Y2S2: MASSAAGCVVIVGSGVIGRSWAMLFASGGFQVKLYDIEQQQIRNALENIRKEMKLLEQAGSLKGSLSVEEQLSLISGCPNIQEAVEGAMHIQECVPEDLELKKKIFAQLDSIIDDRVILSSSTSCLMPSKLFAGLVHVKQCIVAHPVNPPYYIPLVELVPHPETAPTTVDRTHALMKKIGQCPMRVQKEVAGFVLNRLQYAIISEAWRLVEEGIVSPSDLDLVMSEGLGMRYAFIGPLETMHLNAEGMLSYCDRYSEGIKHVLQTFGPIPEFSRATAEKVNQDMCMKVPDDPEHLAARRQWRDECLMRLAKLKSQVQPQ
UniProt Q9UBT7: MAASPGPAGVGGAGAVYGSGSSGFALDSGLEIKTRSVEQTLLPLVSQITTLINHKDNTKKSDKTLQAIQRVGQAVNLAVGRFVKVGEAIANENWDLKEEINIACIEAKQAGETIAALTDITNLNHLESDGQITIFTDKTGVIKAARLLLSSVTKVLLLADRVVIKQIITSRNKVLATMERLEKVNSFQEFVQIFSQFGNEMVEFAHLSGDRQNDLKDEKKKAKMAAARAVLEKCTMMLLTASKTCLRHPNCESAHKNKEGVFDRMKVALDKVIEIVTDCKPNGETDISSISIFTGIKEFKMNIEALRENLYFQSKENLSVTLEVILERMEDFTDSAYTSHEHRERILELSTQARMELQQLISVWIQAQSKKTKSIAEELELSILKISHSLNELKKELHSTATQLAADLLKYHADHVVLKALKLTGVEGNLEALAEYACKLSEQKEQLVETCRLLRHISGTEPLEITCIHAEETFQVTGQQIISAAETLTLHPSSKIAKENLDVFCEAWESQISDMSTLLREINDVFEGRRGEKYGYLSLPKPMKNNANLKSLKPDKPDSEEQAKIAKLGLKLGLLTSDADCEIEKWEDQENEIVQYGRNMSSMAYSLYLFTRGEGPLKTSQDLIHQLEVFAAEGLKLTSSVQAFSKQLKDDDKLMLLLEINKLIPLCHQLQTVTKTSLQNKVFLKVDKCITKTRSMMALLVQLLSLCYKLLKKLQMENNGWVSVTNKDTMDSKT
UniProt Q6GPI1, whole entry, looked up: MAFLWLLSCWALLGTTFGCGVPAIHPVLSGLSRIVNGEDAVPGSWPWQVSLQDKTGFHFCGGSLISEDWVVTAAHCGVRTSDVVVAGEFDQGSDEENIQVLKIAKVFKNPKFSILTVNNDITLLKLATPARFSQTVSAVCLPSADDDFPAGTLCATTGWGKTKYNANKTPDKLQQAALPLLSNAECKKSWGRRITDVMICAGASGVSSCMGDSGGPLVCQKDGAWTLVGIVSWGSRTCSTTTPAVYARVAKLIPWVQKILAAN
UniProt O95476: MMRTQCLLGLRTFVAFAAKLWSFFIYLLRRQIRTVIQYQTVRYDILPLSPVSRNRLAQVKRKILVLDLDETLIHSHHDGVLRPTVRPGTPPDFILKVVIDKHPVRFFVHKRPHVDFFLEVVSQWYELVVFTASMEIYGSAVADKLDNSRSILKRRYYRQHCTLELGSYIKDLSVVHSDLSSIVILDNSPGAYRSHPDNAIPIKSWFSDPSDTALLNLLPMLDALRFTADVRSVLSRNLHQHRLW
UniProt Q03060: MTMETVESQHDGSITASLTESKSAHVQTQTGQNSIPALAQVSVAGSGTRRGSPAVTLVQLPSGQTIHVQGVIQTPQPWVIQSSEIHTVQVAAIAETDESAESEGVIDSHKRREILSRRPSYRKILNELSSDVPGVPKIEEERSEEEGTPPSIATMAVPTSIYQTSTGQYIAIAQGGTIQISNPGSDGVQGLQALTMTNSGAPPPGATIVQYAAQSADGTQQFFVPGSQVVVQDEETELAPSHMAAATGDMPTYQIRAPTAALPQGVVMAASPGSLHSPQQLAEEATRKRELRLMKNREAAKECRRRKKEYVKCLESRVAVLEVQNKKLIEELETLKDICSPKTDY

What was measured:
Experiment in all cases: log2 fold change, soluble protein after heating vs DMSO (PISA); higher = thermal stabilisation; K562 lysate, 10 uM; active = over 0.2 and 3.5 SD of the protein, either way, in both replicates (recomputed)
[1] = compound: C1=CC=C(C=C1)[C@H](COC2=CC3=C(C=C2)NC(=O)N3)NC(=O)C4=CC=CN(C4=O)CC5=CC(=C(C=C5)F)F
Method in brief: (§1)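 To prepare the extract, K562 pellets were dounce-homogenised in PBS pH 7.4 with 1 mM MgCl2, giving crude material at 1 mg/mL protein. This was treated with 10 μM compound for 30 min, then heated in aliquots for 3 min over 48°C-58°C before pooling and addition of NP-40 to 0.5% at 4°C. Centrifugation at 21,000xg for 90 min left soluble protein in the supernatant, which TMTpro 16plex LC-MS/MS quantified with equalised channel sums. Results are log-two fold changes in thermal stability compared with solvent controls, from duplicates.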

[2] = compound: CC1=C(SC2=C1C(=N[C@H](C3=NN=C(N32)C)CC(=O)N)C4=CC=C(C=C4)Cl)C
Method in brief: as §1

[3] = compound: CC1=C2C(=CC=C1)N=C(N(C2=O)C3=CC=CC=C3C)CN4C=NC5=C(N=CN=C54)N
Method in brief: as §1

[4] = compound: Cc1sc2c(c1C)C(c1ccc(Cl)cc1)=N[C@@H](CC(=O)OC(C)(C)C)c1nnc(C)n1-2
Method in brief: as §1

[5] = compound: c1ccc([C@@H]2C[C@H]2NC2CCNCC2)cc1
Method in brief: as §1

Measured: log2 fold change

CTNS isoform 2 (UniProt O60931)
inactive: [1] -0.133 | [2] -0.205 | [3] -0.021 | [4] 0.184 | [5] -0.274

CUX1 isoform 3 (UniProt P39880)
inactive: [1] -0.001 | [2] 0.024 | [3] 0.031 | [4] 0.025 | [5] 0.03

CSDE1 isoform 4 (UniProt O75534)
inactive: [1] -0.012 | [2] -0.009 | [3] -0.017 | [4] 0.046 | [5] 0.04

CRBN (UniProt Q96SW2)
inactive: [1] 0.003 | [2] 0.015 | [3] -0.022 | [4] 0.007 | [5] -0.105

CSNK2B (UniProt P67870)
inactive: [1] -0.02 | [2] 0.024 | [3] -0.068 | [4] 0.03 | [5] -0.016

CUEDC2 (UniProt Q9H467)
inactive: [1] 0.074 | [2] 0.019 | [3] -0.017 | [4] 0.013 | [5] 0.11

CRIPT (UniProt Q9P021)
inactive: [1] 0.015 | [2] 0.15 | [3] 0.022 | [4] -0.005 | [5] 0.005

CYBA (UniProt P13498)
inactive: [1] -0.075 | [2] -0.032 | [3] 0.01 | [4] -0.015 | [5] 0.04

CSTF2T (UniProt Q9H0L4)
inactive: [1] 0 | [2] -0.025 | [3] 0.008 | [4] 0.034 | [5] 0.007

CWC27 (UniProt Q6UX04)
inactive: [1] 0.022 | [2] 0.003 | [3] 0.018 | [4] -0.005 | [5] 0.02

CT47A1 (UniProt Q5JQC4)
inactive: [1] -0.033 | [2] 0.071 | [3] -0.131 | [4] 0.007 | [5] 0.016

CWC15 (UniProt Q9P013)
inactive: [1] 0.011 | [2] 0.052 | [3] -0.061 | [4] -0.039 | [5] -0.008

CTNNA2 (UniProt P26232)
inactive: [1] -0.001 | [2] 0.005 | [3] 0.012 | [4] -0.041 | [5] -0.116

CYB5R1 (UniProt Q9UHQ9)
inactive: [1] 0.03 | [2] -0.063 | [3] -0.031 | [4] 0.059 | [5] 0

CTNND1 isoform 3 (UniProt O60716)
inactive: [1] -0.021 | [2] 0.035 | [3] 0.058 | [4] 0.036 | [5] 0.028

4 successive entries already listed:
CT47A1 (UniProt Q5JQC4)
inactive: [1] -0.033 | [2] 0.071 | [3] -0.131 | [4] 0.007 | [5] 0.016

CWC15 (UniProt Q9P013)
inactive: [1] 0.011 | [2] 0.052 | [3] -0.061 | [4] -0.039 | [5] -0.008

CTNNA2 (UniProt P26232)
inactive: [1] -0.001 | [2] 0.005 | [3] 0.012 | [4] -0.041 | [5] -0.116

CYB5R1 (UniProt Q9UHQ9)
inactive: [1] 0.03 | [2] -0.063 | [3] -0.031 | [4] 0.059 | [5] 0

Additional records follow:

CSRP3 (UniProt P50461)
inactive: [1] 0.014 | [2] -0.115 | [3] 0.049 | [4] -0.055 | [5] -0.445

CTSA (UniProt P10619)
inactive: [1] 0 | [2] 0.035 | [3] 0.005 | [4] 0.036 | [5] -0.022

CS (UniProt O75390)
inactive: [1] 0.003 | [2] 0.016 | [3] 0.033 | [4] 0.029 | [5] 0.03

CRPPA (UniProt A4D126)
inactive: [1] 0.005 | [2] -0.008 | [3] 0.006 | [4] -0.025 | [5] -0.019

CRYZ (UniProt Q08257)
inactive: [1] 0.008 | [2] -0.021 | [3] 0.009 | [4] -0.024 | [5] -0.084

CTNNBL1 (UniProt Q8WYA6)
inactive: [1] -0.003 | [2] 0 | [3] 0.004 | [4] -0.087 | [5] 0.073

CTSB (UniProt P07858)
inactive: [1] 0.006 | [2] 0.01 | [3] 0.012 | [4] 0.002 | [5] -0.016

CTSC (UniProt P53634)
inactive: [1] -0.042 | [2] 0.023 | [3] 0.014 | [4] -0.06 | [5] -0.065

CRELD2 isoform 5 (UniProt Q6UXH1)
inactive: [1] 0.336 | [2] 0.001 | [3] -0.032 | [4] -0.078 | [5] -0.021

CUL4A (UniProt Q13619)
inactive: [1] -0.019 | [2] 0.021 | [3] -0.038 | [4] 0.009 | [5] -0.025

CUL5 (UniProt Q93034)
inactive: [1] 0.001 | [2] 0.011 | [3] 0.003 | [4] 0.022 | [5] -0.02

CYBRD1 (UniProt Q53TN4)
inactive: [1] 0.011 | [2] -0.104 | [3] 0.217 | [4] -0.096 | [5] -0.042

CTSZ (UniProt Q9UBR2)
inactive: [1] 0.026 | [2] -0.002 | [3] 0.019 | [4] -0.032 | [5] -0.016

CTR9 (UniProt Q6PD62)
inactive: [1] 0.008 | [2] 0.06 | [3] -0.007 | [4] 0.036 | [5] -0.002

CWF19L1 (UniProt Q69YN2)
inactive: [1] 0.018 | [2] 0.002 | [3] 0.011 | [4] 0.001 | [5] 0.014

CTBS (UniProt Q01459)
inactive: [1] -0.013 | [2] -0.003 | [3] 0.028 | [4] 0.092 | [5] 0.006

CSNK1A1 (UniProt P48729)
inactive: [1] -0.027 | [2] 0.007 | [3] -0.033 | [4] 0.025 | [5] -0.044

CSNK1G3 (UniProt Q9Y6M4)
inactive: [1] -0.041 | [2] 0.017 | [3] -0.013 | [4] 0.006 | [5] -0.03

CRYZL1 (UniProt O95825)
inactive: [1] 0.023 | [2] 0.016 | [3] -0.002 | [4] -0.023 | [5] -0.011

CRY1 (UniProt Q16526)
inactive: [5] 0.016

CTDSP1 (UniProt Q9GZU7)
inactive: [4] 0.098 | [5] 0.049

CS (UniProt F8VU34)
inactive: [1] -0.07 | [2] 0.148 | [4] 0.01

CSF1 (UniProt P09603)
inactive: [5] -0.007

CRY2 (UniProt Q49AN0)
inactive: [3] -0.181 | [5] -0.013

CYB5A (UniProt P00167)
inactive: [1] -0.121 | [2] -0.108 | [4] 0.049 | [5] -0.009

CTTNBP2NL (UniProt Q9P2B4)
inactive: [1] 0.12 | [2] 0 | [3] 0.056 | [5] 0.039

CSRP2 (UniProt Q16527)
inactive: [1] -0.031 | [2] -0.018 | [5] 0.003

CUX1 isoform 2 (UniProt Q13948)
inactive: [3] 0.03 | [4] 0.075 | [5] 0.193

CRISP3 isoform 3 (UniProt P54108)
inactive: [4] 0.457 | [5] 0.267

CST4 (UniProt P01036)
inactive: [1] -0.086 | [2] 0.224 | [4] 0.012

CSNK1G1 (UniProt Q9HCP0)
inactive: [1] 0.007 | [2] -0.015 | [4] 0.004

CTIF (UniProt O43310)
inactive: [3] 0.094

CSRNP2 (UniProt Q9H175)
inactive: [4] 0.004

CYBC1 (UniProt Q9BQA9)
inactive: [1] 0.009 | [2] -0.043 | [4] -0.018 | [5] -0.115

CRLS1 (UniProt Q9UJA2)
inactive: [1] -0.349 | [2] 0.044 | [5] 0.065

CSNK1A1 isoform 3 (UniProt P48729)
inactive: [4] 0.021

CRYL1 (UniProt Q9Y2S2)
inactive: [3] 0.136 | [4] -0.044

CRYM-AS1 (UniProt A6NIL9)
inactive: [1] -0.061 | [2] 0.002 | [3] 0.08 | [5] -0.092

CUL9 (UniProt Q8IWT3)
inactive: [1] -0.002 | [2] -0.151 | [5] 0.079

CRTC2 (UniProt H0YDQ8)
inactive: [3] -0.075

CST1 (UniProt P01037)
inactive: [5] -0.099

CXXC5 (UniProt Q7LFL8)
inactive: [4] 0.068

CTNNAL1 (UniProt Q9UBT7)
inactive: [3] 0.072 | [4] 0.065 | [5] 0.042

CTRB2 (UniProt Q6GPI1)
inactive: [3] 0.083 | [5] -0.342

CSDE1 isoform 3 (UniProt O75534)
inactive: [1] -0.18 | [2] -0.098 | [5] 0.043

CTSF (UniProt Q9UBX1)
inactive: [5] -0.064

CTDNEP1 (UniProt O95476)
inactive: [4] -0.002

CSGALNACT2 (UniProt Q8N6G5)
inactive: [4] 0.022

CRNN (UniProt Q9UBG3)
inactive: [3] 0.071

CTSG (UniProt P08311)
inactive: [4] -0.277 | [5] -0.161

CTF1 (UniProt Q16619)
inactive: [3] 0.404 | [4] -0.061 | [5] 0.064

CREM isoform 1 (UniProt Q03060)
inactive: [1] -0.024 | [2] -0.026 | [4] -0.068 | [5] 0.044
